9 molecules from publication PMC3694860 can be followed below.

By UniProt entry, the sequences of proteins in these tests, tags left out.
UniProt Q92841: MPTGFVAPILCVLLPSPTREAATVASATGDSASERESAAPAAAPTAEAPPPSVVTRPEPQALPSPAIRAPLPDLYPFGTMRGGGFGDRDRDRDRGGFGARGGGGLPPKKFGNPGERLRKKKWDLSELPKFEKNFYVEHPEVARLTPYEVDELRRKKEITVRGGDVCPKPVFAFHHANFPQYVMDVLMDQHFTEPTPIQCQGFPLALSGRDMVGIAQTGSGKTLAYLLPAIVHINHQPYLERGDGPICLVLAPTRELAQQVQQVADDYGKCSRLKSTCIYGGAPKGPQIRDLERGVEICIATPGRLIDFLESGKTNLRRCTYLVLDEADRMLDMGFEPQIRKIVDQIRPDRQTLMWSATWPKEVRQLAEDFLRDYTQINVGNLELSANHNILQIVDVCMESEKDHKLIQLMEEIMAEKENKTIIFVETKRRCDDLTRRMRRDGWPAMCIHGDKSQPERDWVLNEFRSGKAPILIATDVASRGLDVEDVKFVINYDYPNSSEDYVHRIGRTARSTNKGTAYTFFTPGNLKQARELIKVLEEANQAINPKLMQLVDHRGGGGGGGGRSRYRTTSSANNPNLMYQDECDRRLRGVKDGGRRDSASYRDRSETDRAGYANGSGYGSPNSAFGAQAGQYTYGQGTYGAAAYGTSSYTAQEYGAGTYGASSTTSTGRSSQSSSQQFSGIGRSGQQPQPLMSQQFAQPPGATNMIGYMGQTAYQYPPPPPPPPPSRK
UniProt P08238: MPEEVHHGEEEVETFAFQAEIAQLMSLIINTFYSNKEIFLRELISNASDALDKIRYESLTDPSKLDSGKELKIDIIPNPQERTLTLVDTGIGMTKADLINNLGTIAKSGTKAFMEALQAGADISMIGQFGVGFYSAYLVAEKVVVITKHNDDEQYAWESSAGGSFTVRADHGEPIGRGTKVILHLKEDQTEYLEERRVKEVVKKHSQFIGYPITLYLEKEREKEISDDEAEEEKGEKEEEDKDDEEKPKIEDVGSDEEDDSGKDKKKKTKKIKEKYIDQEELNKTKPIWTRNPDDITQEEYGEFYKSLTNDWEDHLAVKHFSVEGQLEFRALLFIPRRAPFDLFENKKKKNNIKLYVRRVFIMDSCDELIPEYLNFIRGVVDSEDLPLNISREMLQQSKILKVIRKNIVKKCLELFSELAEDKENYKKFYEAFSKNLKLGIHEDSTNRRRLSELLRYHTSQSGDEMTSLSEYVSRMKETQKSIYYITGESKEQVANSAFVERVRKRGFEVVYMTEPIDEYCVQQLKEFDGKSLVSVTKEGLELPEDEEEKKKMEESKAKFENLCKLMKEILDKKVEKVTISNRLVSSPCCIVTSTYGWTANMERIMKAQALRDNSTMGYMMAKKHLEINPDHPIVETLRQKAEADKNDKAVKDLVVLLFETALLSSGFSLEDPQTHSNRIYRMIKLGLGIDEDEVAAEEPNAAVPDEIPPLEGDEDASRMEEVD
UniProt P09874: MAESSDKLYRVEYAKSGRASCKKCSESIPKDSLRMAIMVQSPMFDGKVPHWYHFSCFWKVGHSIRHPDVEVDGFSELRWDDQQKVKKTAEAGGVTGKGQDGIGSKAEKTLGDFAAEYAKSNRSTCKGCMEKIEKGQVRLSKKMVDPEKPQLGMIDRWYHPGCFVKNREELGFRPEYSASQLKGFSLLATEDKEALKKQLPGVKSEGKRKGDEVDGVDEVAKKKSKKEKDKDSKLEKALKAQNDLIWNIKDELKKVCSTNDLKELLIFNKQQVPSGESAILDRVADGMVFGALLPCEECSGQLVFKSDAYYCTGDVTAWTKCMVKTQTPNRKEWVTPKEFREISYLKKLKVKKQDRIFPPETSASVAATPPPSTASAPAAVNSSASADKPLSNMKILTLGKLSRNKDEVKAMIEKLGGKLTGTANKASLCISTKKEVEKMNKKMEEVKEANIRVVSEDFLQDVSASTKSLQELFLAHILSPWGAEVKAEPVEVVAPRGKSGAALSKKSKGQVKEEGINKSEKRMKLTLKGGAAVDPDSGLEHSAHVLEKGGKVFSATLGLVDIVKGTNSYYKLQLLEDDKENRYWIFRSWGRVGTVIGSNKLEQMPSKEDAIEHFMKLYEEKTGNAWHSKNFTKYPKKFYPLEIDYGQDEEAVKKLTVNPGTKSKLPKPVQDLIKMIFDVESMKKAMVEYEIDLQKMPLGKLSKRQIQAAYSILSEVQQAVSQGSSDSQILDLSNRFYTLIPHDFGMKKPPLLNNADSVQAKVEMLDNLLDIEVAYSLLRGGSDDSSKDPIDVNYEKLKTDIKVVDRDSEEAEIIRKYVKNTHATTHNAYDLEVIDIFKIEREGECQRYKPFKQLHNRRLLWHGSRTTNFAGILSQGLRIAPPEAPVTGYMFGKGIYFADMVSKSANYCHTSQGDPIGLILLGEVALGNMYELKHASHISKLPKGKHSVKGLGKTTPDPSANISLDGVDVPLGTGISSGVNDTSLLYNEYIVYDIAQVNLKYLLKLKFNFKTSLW

The target of assay [1] is T1, NS1-binding protein (NS1-BP) (human (endogenous in HeLa and A549)) (UniProt Q9Y6Y0).
T1 sequence: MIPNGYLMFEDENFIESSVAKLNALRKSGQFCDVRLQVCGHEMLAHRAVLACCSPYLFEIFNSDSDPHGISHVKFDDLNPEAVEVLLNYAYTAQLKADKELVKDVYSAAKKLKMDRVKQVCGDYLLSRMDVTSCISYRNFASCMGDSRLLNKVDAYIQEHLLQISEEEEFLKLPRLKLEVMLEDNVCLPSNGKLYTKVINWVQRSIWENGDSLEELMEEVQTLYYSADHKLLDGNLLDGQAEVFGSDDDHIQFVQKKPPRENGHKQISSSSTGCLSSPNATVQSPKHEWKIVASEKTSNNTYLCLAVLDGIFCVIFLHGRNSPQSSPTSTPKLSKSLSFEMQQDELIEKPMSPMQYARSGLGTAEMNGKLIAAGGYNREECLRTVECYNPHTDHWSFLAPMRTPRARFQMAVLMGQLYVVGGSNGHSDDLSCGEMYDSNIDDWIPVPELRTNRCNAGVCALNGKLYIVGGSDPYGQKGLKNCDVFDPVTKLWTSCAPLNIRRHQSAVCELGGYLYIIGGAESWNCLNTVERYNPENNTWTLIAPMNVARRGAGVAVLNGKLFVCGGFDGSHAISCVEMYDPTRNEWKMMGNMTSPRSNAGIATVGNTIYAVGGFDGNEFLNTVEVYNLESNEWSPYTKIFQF

For assay [2], the target named is T1, NS1-binding protein (NS1-BP) (human (endogenous in HeLa and A549)). The source holds these as a separate data set.
The target is the same in assay [3]. The source holds these as a separate data set.

Like-named read-outs stand apart in the source and are kept apart here. These are yes or no findings as the source states them, for the method shown. Binding seen in cells or lysates may run through a third protein. A yes stands for co-enrichment or nearness to the bait. Other partners may have been found.

In the case of DDX17 (from UniProt Q92841 1-729), the binding result in assay [1] was “binds”.
With Hsp70 (from UniProt P11142-1 1-646), in assay [2], the binding result is recorded as “binds”.
Still for that read-out and setting: as for Hsp90 (from UniProt P08238 1-724), the entry is “binds”.
With “heterogeneous nuclear ribonucleoprotein K (hnRNP K) (from UniProt P61978 1-463)”, the binding entry in assay [3] is “binds”.
Consider “nuclear cap binding protein (human (endogenous in HeLa))”, for which the binding result in assay [2] is “binds”.
The same measure, in the same setting: next, “poly (ADP-ribose) polymerase (PARP-1) (from UniProt P09874 1-1014)”: “binds”.
Turning to “polyadenylate-binding protein 4 (from UniProt Q13310-1 1-644)”, in assay [2], the binding result was “binds”.

B1: heterogeneous nuclear ribonucleoprotein M (hnRNP M) (protein, UniProt P52272 1-730)
chain: MAAGVEAAAEVAATEIKMEEESGAPGVPSGNGAPGPKGEGERPAQNEKRKEKNIKRGGNRFEPYANPTKRYRAFITNIPFDVKWQSLKDLVKEKVGEVTYVELLMDAEGKSRGCAVVEFKMEESMKKAAEVLNKHSLSGRPLKVKEDPDGEHARRAMQKVMATTGGMGMGPGGPGMITIPPSILNNPNIPNEIIHALQAGRLGSTVFVANLDYKVGWKKLKEVFSMAGVVVRADILEDKDGKSRGIGTVTFEQSIEAVQAISMFNGQLLFDRPMHVKMDERALPKGDFFPPERPQQLPHGLGGIGMGLGPGGQPIDANHLNKGIGMGNIGPAGMGMEGIGFGINKMGGMEGPFGGGMENMGRFGSGMNMGRINEILSNALKRGEIIAKQGGGGGGGSVPGIERMGPGIDRLGGAGMERMGAGLGHGMDRVGSEIERMGLVMDRMGSVERMGSGIERMGPLGLDHMASSIERMGQTMERIGSGVERMGAGMGFGLERMAAPIDRVGQTIERMGSGVERMGPAIERMGLSMERMVPAGMGAGLERMGPVMDRMATGLERMGANNLERMGLERMGANSLERMGLERMGANSLERMGPAMGPALGAGIERMGLAMGGGGGASFDRAIEMERGNFGGSFAGSFGGAGGHAPGVARKACQIFVRNLPFDFTWKMLKDKFNECGHVLYADIKMENGKSKGCGVVKFESPEVAERACRMMNGMKLSGREIDVRIDRNA
For the molecule B1, the binding result in assay [1] is on record as “binds”.

B2: nuclear factor associated with dsRNA (NFAR-2) (protein, UniProt Q12906-1 1-894)
chain: MRPMRIFVNDDRHVMAKHSSVYPTQEELEAVQNMVSHTERALKAVSDWIDEQEKGSSEQAESDNMDVPPEDDSKEGAGEQKTEHMTRTLRGVMRVGLVAKGLLLKGDLDLELVLLCKEKPTTALLDKVADNLAIQLAAVTEDKYEILQSVDDAAIVIKNTKEPPLSLTIHLTSPVVREEMEKVLAGETLSVNDPPDVLDRQKCLAALASLRHAKWFQARANGLKSCVIVIRVLRDLCTRVPTWGPLRGWPLELLCEKSIGTANRPMGAGEALRRVLECLASGIVMPDGSGIYDPCEKEATDAIGHLDRQQREDITQSAQHALRLAAFGQLHKVLGMDPLPSKMPKKPKNENPVDYTVQIPPSTTYAITPMKRPMEEDGEEKSPSKKKKKIQKKEEKAEPPQAMNALMRLNQLKPGLQYKLVSQTGPVHAPIFTMSVEVDGNSFEASGPSKKTAKLHVAVKVLQDMGLPTGAEGRDSSKGEDSAEETEAKPAVVAPAPVVEAVSTPSAAFPSDATAEQGPILTKHGKNPVMELNEKRRGLKYELISETGGSHDKRFVMEVEVDGQKFQGAGSNKKVAKAYAALAALEKLFPDTPLALDANKKKRAPVPVRGGPKFAAKPHNPGFGMGGPMHNEVPPPPNLRGRGRGGSIRGRGRGRGFGGANHGGYMNAGAGYGSYGYGGNSATAGYSQFYSNGGHSGNASGGGGGGGGGSSGYGSYYQGDNYNSPVPPKHAGKKQPHGGQQKPSYGSGYQSHQGQQQSYNQSPYSNYGPPQGKQKGYNHGQGSYSYSNSYNSPGGGGGSDYNYESKFNYSGSGGRSGGNSYGSGGASYNPGSHGGYGGGSGGGSSYQGKQGGYSQSNYNSPGSGQNYSGPPSSYQSSQGGYGRNADHSMNYQYR
Regarding B2, in assay [2], the binding result is reported as “binds”.
